Source: patent EP3016671B1 (Universitat de Barcelona, priority 2013, dated 2015)
HELM strings list residues between dots; [ac] is acetyl, [am] amide, other brackets name non-standard units. Non-standard residues stand in square brackets, D forms with d. *: point of attachment. Biotin = O=C1N[C@H]2[C@H](CS[C@H]2CCCCC(=O)*)N1; Dap = NC[C@H](N)C(=O)O

Experiment: general procedure: Fmoc solid-phase peptide synthesis; Rink amide ChemMatrix resin; TBTU (coupling method 1); PyBOP/HOAt/DIEA for cargo and linker couplings
Settings: for isolated yield / crude yield: whole synthesis; for crude yield: synthesis
[1] = after synthesis and purification
[2] = synthesis and purification, several disulfide bridges, sequence written open

**Q.** For H-C[Dap]KAPETALD-NH2, which isolated yield [1] is on record?
**A.** 9%

**Q.** With “PEPTIDE1{[Dopa].C.N.C.K.A.P.E.T.A.L.C.A.A.A.C.H.[am]}$PEPTIDE1,PEPTIDE1,2:R3-12:R3|PEPTIDE1,PEPTIDE1,4:R3-16:R3$$$V2.0” as the substance, how does the isolated yield (synthesis and purification) read?
**A.** 4%

**Q.** For “sulforhodamine b-Gly-Cys-Lys-Ala-Pro-Glu-Thr-Ala-Leu-Cys-NH2”, which crude yield (one disulfide bridge, sequence written open) is on record?
**A.** 4%

**Q.** With “H-CKAPETALC-NH2 (cysteine pairing not given here)” as the substance, how does the isolated yield (synthesis and purification, one disulfide bridge, sequence written open) read?
**A.** 10%

**Q.** For “PEPTIDE1{[Dap].K.A.P.E.T.A.L.D.K.Q.I.E.I.K.K.F.K.[am]}$PEPTIDE1,PEPTIDE1,1:R3-9:R3$$$V2.0”, which isolated yield (synthesis and purification) is on record?
**A.** 6%

**Q.** Which isolated yield (synthesis and purification, side-chain lactam ring, sequence written open) does the source give for “5(6)-Carboxyfluorescein-Gly-Dap-Lys-Ala-Pro-Glu-Thr-Ala-Leu-Cys-Asp-NH2” here?
**A.** 7%

**Q.** For PEPTIDE1{K.A.P.E.T.A.L.[am]}$$$$V2.0, which isolated yield (synthesis and purification) is on record?
**A.** 30%

**Q.** Which crude yield does the source give for “H-C≡C(CH2)rC(C=O)-Cys-Lys-Ala-Pro-Glu-Thr-Ala-Leu-Cys-NH2” here?
**A.** 35%

**Q.** Which step yield (late stage modification step, transformation from Ap5ba after purification) does the source give for “H-Cys-Lys-Ala-Pro-Glu-Thr-Ala-Leu-Cys-NH2 with a lanthionine bridge linking the two terminal residues of the peptide (CKAPETALC; printed: Cys-Lys-Ala-Pro-Glu-Thr-Ala-Leu-Cys-)” here?
**A.** 18%

**Q.** Which isolated yield (synthesis and purification) does the source give for “PEPTIDE1{L.P.F.F.D.G.C.N.C.K.A.P.E.T.A.L.C.A.A.A.C.H.[am]}$PEPTIDE1,PEPTIDE1,7:R3-17:R3|PEPTIDE1,PEPTIDE1,9:R3-21:R3$$$V2.0” here?
**A.** 3%

**Q.** With “H-C≡C(CH2)rC(C=O)-Cys-Asn-Cys-Lys-Ala-Pro-Glu-Thr-Ala-Leu-Cys-Ala-Ala-Ala-Cys-His-NH2” as the substance, how does the isolated yield (synthesis and purification) read?
**A.** 4%

**Q.** With “5(6)-Carboxyfluorescein-Gly-Cys-Asn-Cys-Lys-Ala-Pro-Glu-Thr-Ala-Leu-Cys-Ala-Ala-Ala-Cys-His-NH2” as the substance, how does the isolated yield [2] read?
**A.** 5%

**Q.** With “5(6)-Carboxyfluorescein-Cys-Asn-Cys-Lys-Ala-Pro-Glu-Thr-Ala-Leu-Cys-Ala-Ala-Ala-Cys-His-NH2 (CNCKAPETALCAAACH; 5(6)-carboxyfluorescein; C-terminal amide; printed: Cys-Asn-Cys-Lys-Ala-Pro-Glu-Thr-Ala-Leu-Cys-Ala-Ala-Ala-Cys-His-)” as the substance, how does the isolated yield [2] read?
**A.** 3%

**Q.** For “PEPTIDE1{C.N.C.K.A.P.E.T.A.L.C.A.A.A.C.H.[am]}$PEPTIDE1,PEPTIDE1,1:R3-11:R3|PEPTIDE1,PEPTIDE1,3:R3-15:R3$$$V2.0”, which isolated yield (synthesis and purification) is on record?
**A.** 5%

**Q.** Which crude yield does the source give for “PEPTIDE1{[Dap].K.A.P.E.T.A.L.D.[am]}$PEPTIDE1,PEPTIDE1,1:R3-9:R3$$$V2.0” here?
**A.** 40%

**Q.** For “PEPTIDE1{[Dopa].[Dap].K.A.P.E.T.A.L.D.[am]}$PEPTIDE1,PEPTIDE1,2:R3-10:R3$$$V2.0”, which isolated yield (synthesis and purification) is on record?
**A.** 8%

**Q.** For “PEPTIDE1{[Dopa].C.K.A.P.E.T.A.L.C.[am]}$PEPTIDE1,PEPTIDE1,2:R3-10:R3$$$V2.0”, which crude yield is on record?
**A.** 20%

**Q.** With “H-CNCKAPETALCAAACHGLPFFD-NH2 (cysteine pairing not given here)” as the substance, how does the isolated yield (synthesis and purification) read?
**A.** 7%

**Q.** With “sulforhodamine b-Gly-Cys-Asn-Cys-Lys-Ala-Pro-Glu-Thr-Ala-Leu-Cys-Ala-Ala-Ala-Cys-His-NH2” as the substance, how does the isolated yield [2] read?
**A.** 1%

**Q.** Which crude yield does the source give for “H-LPFFDGCKAPETALC-NH2 (cysteine pairing not given here)” here?
**A.** 30%

**Q.** For “maleimide-(CH2)6-C(=O)-Dap-Lys-Ala-Pro-Glu-Thr-Ala-Leu-Asp-NH2”, which isolated yield [1] is on record?
**A.** 10%

**Q.** For “Biotin-CNCKAPETALCAAACH-NH2 (cysteine pairing not given here)”, which isolated yield (synthesis and purification) is on record?
**A.** 5%
